Experimental data: patent publication US20230226198A1, “Artemisinin Derivatives” (DA ZEN THERANOSTICS, INC., priority 2019, published 2023)
For at least one compound, name, drawing or mass did not settle the structure.

Legend:
C4-2B MDVR cells [1] = experiment: Seahorse XF mitochondrial function (OCR/ECAR); format: cell-based, human; settings: 5 uM, over 12 hours
Method: Example 5 C: To determine mitochondrial function of cancer cells (here C4-2B MDVR), the cells are treated with vehicle, DZ (5 uM), DHA (5 uM), and DZ-003 (5 uM) over 12 hours, and the oxygen consumption rate (OCR) from respiration and extracellular acidification rate (ECAR) from glycolysis of the live cells is determined in a metabolic chamber in a 24-well plate format using a Seahorse XF analyzer (Seahorse XFe24, Agilent, Calif.). Reagents (drugs/controls) are added to the wells just before start of the recording at time 0, and the effect of the drugs on the basal mitochondrial function is recorded by the analyzer for about 12 hours (720 minutes). All reagents used are Agilent reagents. Cells are seeded and cultured in Seahorse XF RPMI Medium, pH 7.4. The seeding rate is 8×10^5 for the cells to reach about 90% confluency within about 24 hours when the analysis is started. The protocol is essentially performed as per the standard protocol of the manufacturer, removing the medium, washing the cells once with XF Real-Time ATP Rate Assay Medium, then starting the measurement as per the instrument's pre-programming and subsequent real-time measurements of OCAR/ECAR. Preliminary experiments indicate that the THAD as described herein may have an increased effect compared to DZ3a.

MDVR cells = experiment: C11-BODIPY (lipid peroxidation) and MitoSox (mitochondrial ROS) flow cytometry; format: cell-based, human; settings: 8 h
Method: Example 5F: Cancer cells (here MDVR) are treated with DZ1, DHA and DZ-003 for 8 h, followed by C11-BODIPY staining for 30 min at 37° C. (lipid peroxidation) or MitoSox staining for 10 min at 37° C. […] Flow cytometry analysis is performed as described in example 5E above. […] Preliminary experiments indicate that the THAD as described herein may provide a similar or increased effects.

C4-2B MDVR cells [2] = experiment: Annexin V / PI flow cytometry, cell death and apoptosis; format: cell-based, human; settings: e.g. 5 uM, 6 h
Method: Example 5E: Cancer cells (here C4-2B MDVR) are pretreated with OATP inhibitor telmisartan (TMS), mevalonate (MVA), Midivi (Drp-1 inhibitor), and necrostatin-1 (Nec-1) for 2 h before treatment with vehicle, DHA, DZ-003 and/or a THAD (e.g. 5 uM each) for 6 h. Cells are subjected to annexin v staining (10 ul/10^6 cells) in the dark at RT for 15-20 min followed by PI staining at 1 mg/ml to determine the apoptosis of the cells based on the PI (red) and Annexin V (green) fluorescence by flow cytometry analysis using SONY SA3800 Spectral Analyzer. […] The vehicle and DHA treated cells remain viable (lower-left quadrant; blue population indicates live cells).

[3] = tested on: human prostate tumors (22Rv1 cells); experiment: Human prostate tumor model, subcutaneous 22Rv1 tumors in nude mice; format: in vivo, athymic nude mice; settings: DZ-DHA-monoester 2 to 16 mg/kg, DHA 4.7 mg/kg, i.p. twice a week for 5.5 weeks, versus vehicle
Method: Example 4 A/B: Human cancer cells are subcutaneously (s.c.) implanted (1×10^6) into 4- to 6-week-old athymic nude mice (National Cancer Institute). When tumor sizes in the mice reach between 1 and 6 mm in diameter as assessed by in vivo bioluminescence imaging or by palpation, mice are injected once or multiple times i.p. with the drug, e.g. DZ3a, DHA or o THAD. For mice bearing 22Rv1 tumors, DZ3a (2, 4, 8 and 16 mg/kg) or DHA (e.g. 4.7 mg/kg) is injected twice a week for 5.5 weeks. Whole body optical imaging is taken at 24 hours or as indicated using a Kodak Imaging Station 4000 MM equipped with fluorescent filter sets (excitation/emission, 800:850 nm), with a field of view of 120 mm in diameter, a frequency rate for NIR excitation light of 2 mW/cm^2, and the following camera settings; maximal gain, 2-2 binning, 1,024×1,024 pixel resolution, exposure time of 5 seconds. Live mice are alternatively/additionally imaged by an Olympus OV100 Whole Mouse Imaging System (excitation, 762 nm; emission, 800 nm; Olympus Corp.), containing a MT-20 light source (Olympus Biosystems) and DP70 CCD camera (Olympus). Before imaging, mice are anesthetized with isoflurane (2.5 units), and maintained in an anesthetized state during imaging. Alternatively, a THAD may be compared to DZ3a. […]

Compound: C[C@H]1[C@@H](O)O[C@@H]2O[C@@]3(C)CC[C@H]4[C@H](C)CC[C@@H]1[C@@]24OO3 [DHA, dihydroartemisinin]
- lowering of OCR (in words) (C4-2B MDVR cells [1]): drop much less
- lipid peroxidation (C11-BODIPY fluorescence) (MDVR cells): effect similar to the control
- mitochondrial ROS (Mitosox fluorescence) (MDVR cells): effect similar to the control
- cell death / apoptosis (Annexin V / PI) (C4-2B MDVR cells [2]): remain viable
- inhibition of tumor volume increase [3]: similarly inhibit increase in tumor volume compared to the neg. control
